Measured values: paper PMC6746776, “TA*p63 and GTAp63 achieve tighter transcriptional regulation in quality control by converting an inhibitory element into an additional transactivation domain” (Cell Death & Disease, 2019)
These are yes or no findings as the source states them, for the method shown. Some results given as binding are weak or reduced against the parent protein; the word gives no strength.

Target: TA*p63α (UniProt Q9H3D4)
Test: SEC; in vitro translated protein in rabbit reticulocyte lysate on Superose 6 3.2/300, 50 mM sodium phosphate pH 7.8, 100 mM NaCl, 4 °C; fractions analysed by western blot

binding: binds
B1: TA*p63α (protein, UniProt Q9H3D4-1 1-680)
chain: MNFETSRCATLQYCPDPYIQRFVETPAHFSWKESYYRSTMSQSTQTNEFLSPEVFQHIWDFLEQPICSVQPIDLNFVDEPSEDGATNKIEISMDCIRMQDSDLSDPMWPQYTNLGLLNSMDQQIQNGSSSTSPYNTDHAQNSVTAPSPYAQPSSTFDALSPSPAIPSNTDYPGPHSFDVSFQQSSTAKSATWTYSTELKKLYCQIAKTCPIQIKVMTPPPQGAVIRAMPVYKKAEHVTEVVKRCPNHELSREFNEGQIAPPSHLIRVEGNSHAQYVEDPITGRQSVLVPYEPPQVGTEFTTVLYNFMCNSSCVGGMNRRPILIIVTLETRDGQVLGRRCFEARICACPGRDRKADEDSIRKQQVSDSTKNGDGTKRPFRQNTHGIQMTSIKKRRSPDDELLYLPVRGRETYEMLLKIKESLELMQYLPQHTIETYRQQQQQQHQHLLQKQTSIQSPSSYGNSSPPLNKMNSMNKLPSVSQLINPQQRNALTPTTIPDGMGANIPMMGTHMPMAGDMNGLSPTQALPPPLSMPSTSHCTPPPPYPTDCSIVSFLARLGCSSCLDYFTTQGLTTIYQIEHYSMDDLASLKIPEQFRHAIWKGILDHRQLHEFSSPSHLLRTPSSASTVSVGSSETRGERVIDAVRFTLRQTISFPPRDEWNDFNFDMDARRNKQQRIKEEGE
